Here are results for one molecule from PMC9578707.

Results are given in words; binding and its absence hold for the method and conditions named.

This assay addresses T1, PTPRJ ECD (human) (UniProt Q12913).
T1 sequence (chain, biotin where captured on the streptavidin chip): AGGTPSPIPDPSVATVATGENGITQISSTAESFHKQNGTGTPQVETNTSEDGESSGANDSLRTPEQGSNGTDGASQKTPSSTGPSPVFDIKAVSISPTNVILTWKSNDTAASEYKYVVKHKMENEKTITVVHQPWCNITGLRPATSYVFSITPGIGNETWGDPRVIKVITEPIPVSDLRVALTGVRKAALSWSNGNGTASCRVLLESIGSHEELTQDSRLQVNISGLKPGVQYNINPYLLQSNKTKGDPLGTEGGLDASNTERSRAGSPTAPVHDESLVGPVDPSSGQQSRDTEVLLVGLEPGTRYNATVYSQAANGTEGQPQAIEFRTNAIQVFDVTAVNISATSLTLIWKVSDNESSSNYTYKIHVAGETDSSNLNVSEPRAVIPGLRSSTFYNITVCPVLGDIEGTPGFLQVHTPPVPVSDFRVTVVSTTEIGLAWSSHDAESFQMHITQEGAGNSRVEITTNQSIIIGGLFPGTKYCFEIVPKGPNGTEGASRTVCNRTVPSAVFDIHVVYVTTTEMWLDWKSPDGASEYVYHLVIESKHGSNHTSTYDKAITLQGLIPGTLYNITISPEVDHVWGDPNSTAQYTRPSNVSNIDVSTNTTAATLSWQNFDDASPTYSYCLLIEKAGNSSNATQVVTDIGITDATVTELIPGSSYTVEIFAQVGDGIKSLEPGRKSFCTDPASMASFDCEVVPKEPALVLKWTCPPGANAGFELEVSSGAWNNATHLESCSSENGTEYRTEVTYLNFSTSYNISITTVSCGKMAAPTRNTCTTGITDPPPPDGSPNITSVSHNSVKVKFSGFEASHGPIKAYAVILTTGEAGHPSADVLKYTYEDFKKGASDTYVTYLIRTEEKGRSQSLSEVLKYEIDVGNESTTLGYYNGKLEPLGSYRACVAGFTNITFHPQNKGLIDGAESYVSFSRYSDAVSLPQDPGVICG
The experiment in a line: SPR; Biacore T100; biotinylated receptor ECD or hit protein captured on a streptavidin chip (~100-200 RU), non-biotinylated secreted ligand as analyte in twofold dilutions; HBS-P+ buffer; 1:1 Langmuir model or equilibrium fit; both purified.

B1: Osteocrin (ligand, UniProt P61366 28-133)
chain: VDVTTTEAFDSGVIDVQSTPTVREEKSATDLTAKLLLLDELVSLENDVIETKKKRSFSGFGSPLDRLSAGSVDHKGKQRKVVDHPKRRFGIPMDRIGRNRLSNSRG
modifications: biotin (biotinylated in vitro with BirA) where used on beads
In the case of B1, the binding entry is on record as “no binding”.
